Our source for the binding values is paper PMC2682659.

By UniProt entry, the sequences of proteins in these tests, tags left out. Where a name states a change or a piece, a line headed by the entry shows the natural chain unless it says otherwise. Residues count along the entry.
UniProt P84022: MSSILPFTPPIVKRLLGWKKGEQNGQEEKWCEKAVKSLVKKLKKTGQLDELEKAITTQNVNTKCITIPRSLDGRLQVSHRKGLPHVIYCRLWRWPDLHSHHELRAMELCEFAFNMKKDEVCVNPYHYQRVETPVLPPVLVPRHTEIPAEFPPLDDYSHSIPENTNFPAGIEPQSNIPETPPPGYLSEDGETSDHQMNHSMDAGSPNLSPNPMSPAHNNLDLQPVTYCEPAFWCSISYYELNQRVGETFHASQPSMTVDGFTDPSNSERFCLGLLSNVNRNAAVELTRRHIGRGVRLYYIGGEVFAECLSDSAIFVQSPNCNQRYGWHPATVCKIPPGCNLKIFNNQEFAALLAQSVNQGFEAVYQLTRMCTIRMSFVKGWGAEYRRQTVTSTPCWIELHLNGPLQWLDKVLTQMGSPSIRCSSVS
UniProt Q61473: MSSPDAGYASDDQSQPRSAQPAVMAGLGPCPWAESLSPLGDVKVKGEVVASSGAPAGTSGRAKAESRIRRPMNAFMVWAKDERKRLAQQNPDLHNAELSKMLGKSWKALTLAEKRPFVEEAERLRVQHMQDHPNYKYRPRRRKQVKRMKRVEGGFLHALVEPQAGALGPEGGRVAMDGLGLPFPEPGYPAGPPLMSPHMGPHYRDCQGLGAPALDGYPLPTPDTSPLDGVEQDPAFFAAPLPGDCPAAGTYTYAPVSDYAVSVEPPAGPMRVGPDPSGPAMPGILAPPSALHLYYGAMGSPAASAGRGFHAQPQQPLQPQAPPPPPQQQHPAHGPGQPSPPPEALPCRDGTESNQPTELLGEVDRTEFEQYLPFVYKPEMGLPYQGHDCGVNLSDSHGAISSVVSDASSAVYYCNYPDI
Sox17-V5 N-terminal deletion (129–419): residues 129-419 of Q61473

Results are given in words; binding and its absence hold for the method and conditions named. Binding seen in cells or lysates may run through a third protein. Some results given as binding are weak or reduced against the parent protein; the word gives no strength.

For test [1], the target named is GST-Smad3 (pGEX-human Smad3) (human) (UniProt P84022). Description: pull-down; 4–8 µg GST-Smad3 on glutathione sepharose beads incubated with precleared MLE-15 lysates expressing Sox17-V5 constructs; multiple binding stringencies; washes 20 mM Tris pH 8.0, 1 mM EDTA, 300–500 mM NaCl, 0.5% NP-40; anti-V5 immunoblot; only the target purified. (In general: Immunoblotting shows a protein as a band on a membrane.)

Test [2] concerns the target GST-Sox17 fusion protein (pGEX-mouse Sox17) (mouse) (UniProt Q61473). The test can be described thus: pull-down; GST-Sox17 pull-down of Smad3 deletion constructs at low stringency binding conditions; data not shown; only the target purified.
Test [3] shares this target. The test can be described thus: pull-down; 4–8 µg GST-Sox17 on glutathione sepharose beads incubated with precleared MLE-15 lysates expressing FLAG-Smad3 constructs; higher stringency conditions; washes 20 mM Tris pH 8.0, 1 mM EDTA, 300–500 mM NaCl, 0.5% NP-40; anti-FLAG immunoblot; only the target purified.
Test [4] addresses Sox17 (co-immunoprecipitation, data not shown) (UniProt Q61473). The test can be described thus: co-IP; co-immunoprecipitation assays; data not shown; no methods given.

On to “Sox17-V5 DNA binding domain point mutant (M76A) (from UniProt Q61473 1-419)”, for which the binding result in test [1] is recorded as “binds”.
Regarding “FLAG-Smad3 (220–425) (from UniProt P84022 220-425) (domain or fragment)”, in test [2], the binding entry is “binds”.
For “Sox17-V5, wild type Sox17 (1–419) (from UniProt Q61473 1-419)”, the binding entry in test [1] is given as “binds”.
As to “FLAG-Smad3 (1–425) (from UniProt P84022 1-425)”, the binding entry in test [3] is “binds”.
With “Sox17-V5 C-terminal deletion (1–359) (from UniProt Q61473 1-359) (domain or fragment)”, the binding result in test [1] is given as “binds”.
“FLAG-Smad3 (146–425) (from UniProt P84022 146-425) (domain or fragment)”: in test [3], the binding entry was “binds”.
Consider “Smad3 (co-immunoprecipitation, data not shown) (from UniProt P84022 1-425)”, for which, in test [4], the binding entry is given as “binds”.
“Sox17-V5 N-terminal deletion (129–419) (from UniProt Q61473-1 129-419) (domain or fragment)”: in test [1], the binding entry is reported as “binds”.
Turning to “FLAG-Smad3 (1–145) (from UniProt P84022 1-145) (domain or fragment)”, in test [2], the binding result was “binds”.
